Paper PMC3854790, “CRIS—A Novel cAMP-Binding Protein Controlling Spermiogenesis and the Development of Flagellar Bending” (PLoS Genetics, 2013)
Results are given in words; binding and its absence hold for the method and conditions named. In cells and extracts the contact can be indirect. A yes stands for co-enrichment or nearness to the bait. Other partners may have been found.

T1: CRIS (cyclic nucleotide receptor involved in sperm function) (mouse (endogenous in sperm precursor cells)) (UniProt Q9D5U8)
T1 sequence: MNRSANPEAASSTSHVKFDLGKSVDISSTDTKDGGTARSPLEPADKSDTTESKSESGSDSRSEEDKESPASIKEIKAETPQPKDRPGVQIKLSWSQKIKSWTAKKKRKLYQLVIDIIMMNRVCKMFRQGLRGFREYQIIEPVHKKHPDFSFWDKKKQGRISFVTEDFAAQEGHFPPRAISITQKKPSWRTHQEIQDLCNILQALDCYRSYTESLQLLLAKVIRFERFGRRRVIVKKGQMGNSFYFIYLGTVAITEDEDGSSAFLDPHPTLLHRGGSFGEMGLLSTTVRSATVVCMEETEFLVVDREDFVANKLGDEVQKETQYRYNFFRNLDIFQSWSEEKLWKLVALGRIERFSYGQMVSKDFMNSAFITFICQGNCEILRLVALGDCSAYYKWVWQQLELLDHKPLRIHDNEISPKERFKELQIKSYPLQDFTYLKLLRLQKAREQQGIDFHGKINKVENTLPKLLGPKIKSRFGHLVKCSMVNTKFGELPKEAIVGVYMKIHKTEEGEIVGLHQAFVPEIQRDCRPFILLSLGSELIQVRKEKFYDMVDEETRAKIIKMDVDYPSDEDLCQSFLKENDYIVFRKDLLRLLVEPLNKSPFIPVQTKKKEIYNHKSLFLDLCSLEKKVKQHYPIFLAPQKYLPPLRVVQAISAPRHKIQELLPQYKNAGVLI


Target: T1, CRIS (cyclic nucleotide receptor involved in sperm function) (mouse (endogenous in sperm precursor cells))
Assay: affinity purification with mass spectrometry; co-immunoprecipitation of endogenous CRIS from sperm precursor cells of wild-type mice; 500 µg total lysate on a column of monoclonal antibody 4B2 or 4E4 covalently coupled to Protein G, overnight at 4°C, washed four times with lysis buffer (10 mM Tris/HCl pH 7.6, 140 mM NaCl, 1 mM EDTA, 1% Triton-X 100), eluted in SDS sample buffer, SDS-PAGE, LC-MS/MS; cells of Cris-deficient mice as negative control

Row | binding | Binder
1 | binds | DCC-interacting protein 13-alpha (protein, UniProt Q8K3H0 1-707) MPGIDKLPIEETLEDSPQTRSLLGVFEEDATAISNYMNQLYQAMHRIYDAQNELSAATHLTSKLLKEYEKQRFPLGGDDEVMSSTLQQFSKVIDELSSCHAVLSTQLADAMMFPISQFKERDLKEILTLKEVFQIASNDHDAAINRYSRLSKKRENDKVKYEVTEDVYTSRKKQHQTMMHYFCALNTLQYKKKIALLEPLLGYMQAQISFFKMGSENLNGQLEEFLANIGTSVQNVRREMDGDVETMQQTIEDLEVASDPLYLPDPDPTKFPINRNLTRKAGYLNARNKTGLVSSTWDRQFYFTQGGNLMSQARGDVAGGLAMDIDNCSVMAVDCEDRRYCFQITSFDGKKSSILQAESKKDHEEWICTINNISKQIYLSENPEETAARVNQSALEAVTPSPSFQQRHESLRPGGQSRPPTARTSSSGSLGSESTNLAALSLDSLVAPDTPIQFDIISPVCEDQPGQAKAFGQGGRRTNPFGESGGSTKSETEDSILHQLFIVRFLGSMEVKSDDHPDVVYETMRQILAARAIHNIFRMTESHLLVTCDCLKLIDPQTQVTRLTFPLPCVVLYATHQENKRLFGFVLRTSGGRSESNLSSVCYIFESNNEGEKICDSVGLAKQIALHAELDRRASEKQKEIERVKEKQQKELSKQKQIEKDLEEQSRLIAASSRPNQAGSEGQLVLSSSQSEESDLGEEGKKRESEA
2 | binds | Tether containing UBX domain for GLUT4 (protein, UniProt Q8VBT9-1 1-550) MAAPAGGGGSAVSVLAPNGRRHTVKVTPSTVLLQVLEDTCRRQDFNPSEYDLKFQRTVLDLSLQWRFANLPNNAKLEMVPVSRSREGPENIVRIAFQLDDGSRLQDAFCSRQTLWELLSHFAQTRERLQQLGEKTPVCVYMRNEVTGRAALQNTTLQSLGLTGGSATIRFVIKQCDTAGKQESIAVRSKAPGSPVSSLSADQASSSTLLPLNSGEFSRGDLNHEGDANTSGTGLEGGPKPTDAQTKQSTSEPASAPFVPFSGGGQRLGGPSASLRPLTSPSANSSKSFSGPGGPSKPKKPKPGEEPQQEPEPPVDRDPVVYHPDLEDLLQPWPAEVPDEFFEVTVDDVRRRLAQLKSERKRLEEAPLVTKAFREAQMKEKLERYPKVALRVLFPDRYILQGFFRPSETVGDLRDFVRSHLGNPELSFYLFIAPPKMVLDDHTLTLFQANLFPAALVHFGAEEPTGLYLEPGLLEHTVSPSTADVLVARCMSRASGSPPLLPAPDPVSLESEPIAEDGALGPPEPIQGTAQPVKRSLGKVPKWLKLPASKR
3 | binds | IQ calmodulin-binding motif-containing protein 1 (protein, UniProt Q8BP00-1 1-598) MKPAGTDPRILSLAAEVAKSPEQNVPVILLKLKEIINNTPLGSSELKKVKQDIYCYDLIQYCLLVLSQDSSRIQGGWSTISQLTQILSHCCVGLEPGEDGEEFYKELLPSAAENFLILGRRLQTCFINATKGEEQDKLLHFFQIVTDSLFWLLGGHVQLIQNVLQSDHFLHLLQTDNVQIGASVMTLLQNILQINSGNLLKIEGKALHSILDEILFKLLSTPSPVIRSTATKLLLVLAESHQEILILLRLSACYKGLRSLLNKQETLTEFSRELRQLVDLLTPKIHQEVEEQKLHKAACLIQAYWKGFQTRKRLKKLPSAVIALQRSFRSKRTKMMLELNRQKEEEDLRLKLQLQRQRAMRLSRESRLNMLEIIHPGQVEKYNREMEEKSALTIQKHWRGYRERKNFRQQRPSLTEYKAAVTLQRAVLKFLAKCRKKKKLFASWHGLQELTDARRVELKQQVDDYVKRHPCSQMSEAASRELHAQAQERLQHYFMGRAIEERAQQHREALMAQISTNIEQLMKAPSLKEAEGKEPEQFLSRSRPVAAKAKQAHLTTLKHIQAPWWKKLGEEPGDEVDVPKDELSIDLGMLFIGGTKPP
